The values that follow come from publication PMC5996148.

Sequences of proteins named here, by UniProt entry; tags and fusion partners are left off. A change or cut given only in a name is not applied to a line headed by its entry.
UniProt Q15691: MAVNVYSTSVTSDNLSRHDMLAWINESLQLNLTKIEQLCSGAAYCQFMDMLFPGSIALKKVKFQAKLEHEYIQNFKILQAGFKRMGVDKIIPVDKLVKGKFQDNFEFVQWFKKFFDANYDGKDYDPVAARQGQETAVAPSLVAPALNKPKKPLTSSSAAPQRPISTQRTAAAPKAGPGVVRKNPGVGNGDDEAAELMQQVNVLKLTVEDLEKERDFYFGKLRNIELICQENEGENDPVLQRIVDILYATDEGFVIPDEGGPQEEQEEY

Among the test systems are MAGEA4 (human); MAN2C1 (human); MANSC1 (human); MAP3K7IP1 (human); MAP3K8 (human); MAP4 (human); MAPK6 (human); MAPK9 (human); MAPRE2 (human); MARVELD2 (human); MASP2 (human); MAT1A (human); MAT2B (human); MB (human); MCFD2 (human); MCM2 (human); MCM6 (human).
Test in all cases: protein microarray (ProtoArray v5.0), streptavidin-Alexa Fluor 647
What all share (settings): 3'-biotin; 20 mM Tris (pH 7.5), 5 mM MgCl2, 100 mM KCl, 0.1% Tween-20, A/T-rich and random oligonucleotide blockers; temperature not stated; high values mean tight binding

The next experiment concerns the target T1, MAGEH1 (UniProt Q9H213).
T1 sequence: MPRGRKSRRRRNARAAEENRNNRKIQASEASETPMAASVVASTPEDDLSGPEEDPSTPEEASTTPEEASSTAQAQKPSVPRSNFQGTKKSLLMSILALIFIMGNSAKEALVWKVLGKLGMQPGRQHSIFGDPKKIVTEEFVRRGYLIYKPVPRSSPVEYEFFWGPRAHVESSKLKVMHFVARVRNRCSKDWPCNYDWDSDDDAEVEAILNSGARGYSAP

Experiment [1] concerns MAP kinase-activated protein kinase 3 (human).
The target of another experiment is MAPRE1 (UniProt Q15691).

Several values for one entry are separate records, joined by “and”; a condition that tells them apart may be missing. Equal values may be shown once. The list shows a part of the results. For some assays here: The source does not settle which construct or isoform was used.

In the case of “GGTGACAGGGGTATGGGGAGGGG [G4-2 biotinylated (Ct1)]”, the binding signal in the experiment with MAGEA4 (human) was -0.388 z-score; with MAGEH1 it was 5.27 z-score; in the experiment with MAN2C1 (human) it was -0.365 z-score; in the experiment on MANSC1 (human), -0.389 z-score; in experiment [1], 6.79 z-score; in the experiment on MAP3K7IP1 (human), -0.398 z-score. The binding signal with MAP3K8 (human) is -0.36 z-score; in the experiment with MAP4 (human), -0.373 z-score; in the experiment on MAPK6 (human), -0.374 z-score; with MAPK9 (human), -0.388 z-score; with MAPRE1 it was 3.27 z-score; with MAPRE2 (human), -0.358 z-score. Besides, the binding signal in the experiment on MARVELD2 (human) is -0.394 z-score; with MASP2 (human), -0.372 z-score; with MAT1A (human) it was -0.369 z-score; with MAT2B (human) it was -0.377 z-score; in the experiment on MB (human), -0.401 z-score; with MCFD2 (human), -0.374 z-score. The binding signal with MCM2 (human) is -0.393 z-score and -0.38 z-score; in the experiment with MCM6 (human), -0.41 z-score.
